PMC5389562
For at least one entry, the source does not settle the construct or the ends of the probe. Results from cells or extracts need not show a direct contact. At least one verdict rests on a figure or table, not on a statement of the authors. Protein sequences can lack the tags named with them.

Target: T1, mCherry-U2AF35 (UniProt Q01081)
T1 sequence (looked up, limits assumed): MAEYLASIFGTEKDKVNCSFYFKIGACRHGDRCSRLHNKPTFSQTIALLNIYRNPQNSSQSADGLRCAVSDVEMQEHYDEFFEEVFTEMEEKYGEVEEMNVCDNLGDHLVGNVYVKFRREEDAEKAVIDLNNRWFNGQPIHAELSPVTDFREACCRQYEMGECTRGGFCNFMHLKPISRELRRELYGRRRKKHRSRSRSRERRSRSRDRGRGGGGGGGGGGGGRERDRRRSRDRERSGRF
Experiment: competition with a labelled probe
Conditions: -ATP, oligo reduces double occupancy of GloC-2x3'ss; HEK293T nuclear extract expressing fusion proteins, preincubated 15 min with ATP/phosphocreatine or ATP-depleted at 30 C; pre-mRNA 62.5 nM; protein in an extract; protein details: N-terminal mCherry

CCUUCUUCUUUUUCCUACAGCUC [globin 3'ss RNA oligo]
binding result: binds
